From the supplement of paper PMC12764529 come the findings set out here.

A short description of data set [1]: folding stability dG unfold from trypsin proteolysis; higher = more stable. The procedure, abridged:
(§1)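 How resistant each design was to proteolysis was captured as K50, inferred by Bayesian fitting of sequencing counts. Unfolding free energy was then derived relative to a sequence-predicted unfolded-state K50 and a shared folded-state K50, per protease or combined. Digestion used trypsin and chymotrypsin at 11 threefold-diluted concentrations plus a no-protease condition, on mini-proteins under 80 residues without cysteine in a PA-tagged cDNA display construct. Designs were kept only when AlphaFold2 dimer inter-PAE was above 15.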

Data set [2] is described as follows: folding stability dG unfold from chymotrypsin proteolysis; higher = more stable. In short, it runs like this:
as §1

Data set [3] is described as follows: folding stability dG unfold (combined trypsin and chymotrypsin); higher = more stable. In short, it runs like this: as §1

± gives the half width of the 95% confidence interval. For many entries, trypsin and chymotrypsin gave values far apart.

In the case of “SAGTITADDITEIEMQWDPGNGYVQIEIEFPNGYTVNAWMPNDKIEIEVWYPNGKKVEIEFEIKPPGASAGG [r19_121_TrROS]”, the entries for the “folding stability dG unfold” value in data set [1], in data set [2] and in data set [3] were 1.72 ± 0.22 kcal/mol, 2.74 ± 0.18 kcal/mol and 2.39 ± 0.38 kcal/mol, respectively.

As to “SAGGSAGGSAGYGYIVITFKFNYPRLDPDNGKLETFTVEVTIWIPIPPPPPPPPNDPEGKSAGGSAGGSAGG [r17_493_TrROS]”, the “folding stability dG unfold” value was 2.22 ± 0.22 kcal/mol in data set [1], 5.25 ± 0.19 kcal/mol in data set [2] and 4.8 ± 0.37 kcal/mol in data set [3].

For “SAGGKKEVKIEIKKEGDKLVIKIEEVDGKLYVTLPNGEIVEIEFDEETGEIKIRFKNGEELTFKLPPSAGGS [r16_602_TrROS_Hall]”, the “folding stability dG unfold” value in data set [1] was determined as 1.62 ± 0.078 kcal/mol; in data set [2], 4.03 ± 0.088 kcal/mol; in data set [3], 3.58 ± 0.13 kcal/mol.

For “SAGMTITVESLEDALALAEELAEKYPGLKVTVEVRLSPDGKTVEVRVTIEPAPPVKVVDPETGEEVEEESAG [r5_870_TrROS_Hall]”, the “folding stability dG unfold” value in data set [1] came to 3.72 ± 0.36 kcal/mol; in data set [2], 2.3 ± 0.12 kcal/mol; in data set [3] it was 3.43 ± 0.3 kcal/mol.

In the case of “SAGMELVEVTYLPNGTYVVTVKEGSKTTSKTVAPGETFEVPGGLRITVVEPGKYTVSPIPPGPVDVRRSAGG [r19_17_JUSTAS]”, the “folding stability dG unfold” value in data set [1] is -1.16 ± 0.21 kcal/mol; in data set [2] it was 1.48 ± 0.026 kcal/mol; in data set [3] it was 0.982 ± 0.032 kcal/mol.

Turning to “SAGGMVEITATVGSPDPSLTDEEIAERILKELGLDPEIVEVTFLERRLVPDAAGRVRVVVEMKFLVPEKSAG [r5_528_JUSTAS]”, the “folding stability dG unfold” value in data set [1] was determined as 4.77 ± 0.21 kcal/mol; in data set [2], 4.26 ± 0.16 kcal/mol; in data set [3], 4.73 ± 0.19 kcal/mol.

“SAGGSAGGSAGGDDDWRIMINIEIWPYPNYVRIRFPIMIIPPDGKLIGSVEVTFWIPANDSAGGSAGGSAGG [r7_812_TrROS]”: the entries for the “folding stability dG unfold” value in data set [1], in data set [2] and in data set [3] were 3.2 ± 0.18 kcal/mol, 3.84 ± 0.37 kcal/mol and 3.7 ± 0.38 kcal/mol, respectively.

As for “SAGGSAGGRLRFRTREEAERAARRLREAGYEVRVEVEERDGELTVTIEIRPRPPPPPVVVLPGRSAGGSAGG [r6_181_TrROS_Hall]”, the “folding stability dG unfold” value in data set [1] stood at 0.593 ± 0.24 kcal/mol; in data set [2] it was 4.05 ± 0.11 kcal/mol; in data set [3], 3.52 ± 0.26 kcal/mol.

For the sequence “SAGGSAGGMTLEFTDYTPEEMEKIKKEVEEFAKKNNIKVEIKTEKLPNGKTKMTITITPNKKKKSAGGSAGG [r6_907_JUSTAS]”, the “folding stability dG unfold” value turned out to be 0.887 ± 0.034 kcal/mol in data set [1], 3.79 ± 0.083 kcal/mol in data set [2] and 3.29 ± 0.071 kcal/mol in data set [3].

On to “SAGGSAGGSAGGSMKIEIVTNDPKKAEEIKEKLEKEGYPKKKNPINIEVKEISEEELLKSAGGSAGGSAGGS [r4_281_JUSTAS]”, for which the “folding stability dG unfold” value is -0.113 ± 0.085 kcal/mol in data set [1], 0.628 ± 0.053 kcal/mol in data set [2] and 0.533 ± 0.16 kcal/mol in data set [3].

Take “SAGGSAGGSATATLRLRAPVRIRTRVTTLDDGVPTTRTETATVYVDVEIEVLPDLDPDDPRVVSAGGSAGGS [r12_713_TrMRF]”: the “folding stability dG unfold” value in data set [1] worked out at 0.0198 ± 0.14 kcal/mol; in data set [2], 2.594 ± 0.02 kcal/mol; in data set [3], 1.86 ± 0.093 kcal/mol.

As to “SAGGSEKLSPEEQAKRQKPPAPPVIVIEGPLSEEQIKALVDAGYTIYITGPDGSVWKIKDGKIEKISAGGSA [r2_33_TrROS_Hall]”, the “folding stability dG unfold” value in data set [1] stood at 0.299 ± 0.071 kcal/mol; in data set [2] it was 3.83 ± 0.13 kcal/mol; in data set [3], 3.38 ± 0.21 kcal/mol.

“SAGGSAGGSAGKPKYKIKKIEIKKNKDGTYTITAEIELENGKTLKLTITVKPGEKIEIKPSAGGSAGGSAGG [r17_316_TrROS_Hall]”: the “folding stability dG unfold” value is 2.4 ± 0.058 kcal/mol in data set [1], 4.86 ± 0.084 kcal/mol in data set [2] and 4.68 ± 0.17 kcal/mol in data set [3].

In the case of “SAGGSAGGSAMTVESEVSEIPNGGKTVTITVTESGKKIPVTFPDSPSNPVPKEELVAKVIKESAGGSAGGSA [r18_111_JUSTAS]”, the “folding stability dG unfold” value was -1.27 ± 0.16 kcal/mol in data set [1], 1.58 ± 0.029 kcal/mol in data set [2] and 1.07 ± 0.055 kcal/mol in data set [3].

Regarding “SAGGSAGGSAGPFKIEMTFIFKKDNEYYIAKIEIEISPDGYPKMKIEIKKVDINELENYFSAGGSAGGSAGG [r11_690_TrMRF]”, the “folding stability dG unfold” value in data set [1] is 2.52 ± 0.15 kcal/mol; in data set [2] it was 4.39 ± 0.14 kcal/mol; in data set [3], 4.04 ± 0.4 kcal/mol.

Consider “SAGGSAGGSVPLELELTFKLENGSFIVVKAKIEFNPETPEFKVEVLSVEIFLEPEGKIVSDEDFSAGGSAGG [r6_864_TrMRF]”, for which the “folding stability dG unfold” value came out at 1.43 ± 0.087 kcal/mol in data set [1], 3.08 ± 0.085 kcal/mol in data set [2] and 2.44 ± 0.29 kcal/mol in data set [3].

For “SAGGSAGGNSAYIFIPITMPIKFKWEYDPDGKPEPREMEMKIRVYIAIRIDPPDGKIRDIGLFFSAGGSAGG [r6_424_TrROS]”, the “folding stability dG unfold” value in data set [1] is 3.01 ± 0.085 kcal/mol; in data set [2], 6.33 ± 0.97 kcal/mol; in data set [3], above 6 kcal/mol.

For the sequence “SAGGSAGGKIKPGEKIEVTLKIVNKETGEEKTIKAEVEVVDGKLYIRFPDGSIQEIDLKDIEIESAGGSAGG [r6_436_TrROS_Hall]”, the “folding stability dG unfold” value is 1.24 ± 0.03 kcal/mol in data set [1], 3.53 ± 0.086 kcal/mol in data set [2] and 3.09 ± 0.074 kcal/mol in data set [3].

On to “SAGGSAEPVITVTVTPIPEKGEVVITITFPDGTRYTRTLPYSSPEEAEARAAELVAELIAEYRAAASAGGSA [r15_477_JUSTAS]”, for which the “folding stability dG unfold” value is 2.56 ± 0.093 kcal/mol in data set [1], 4.69 ± 0.06 kcal/mol in data set [2] and 4.39 ± 0.044 kcal/mol in data set [3].

As to “SAGMVLLTVPAEEMTEEEAEAIAETIEKAFPFLRIKSAEELVVPAPDDRPVRMRVLLIDAELPLPPELLSAG [r5_835_TrMRF]”, the “folding stability dG unfold” value in data set [1] was determined as 0.116 ± 0.17 kcal/mol; in data set [2], 2.21 ± 0.078 kcal/mol; in data set [3], 1.43 ± 0.096 kcal/mol.

On to “SAGGSAGGSAGMKPDDTVTYTITVPHPESGEPLAEIELTYPVGTPIEKVKEEAKILAEKISAGGSAGGSAGG [r11_516_TrMRF]”, for which the results for the “folding stability dG unfold” value in data set [1], in data set [2] and in data set [3] were 0.515 ± 0.03 kcal/mol, 0.141 ± 0.27 kcal/mol and 0.429 ± 0.088 kcal/mol, respectively.

On to “SAGGVDKGPPDAEVSREVLPRKLPNGKELLEEIRTRVLASGSLLVDRTIRDPNSDKVESEELVDPGASAGGS [r8_129_JUSTAS]”, for which the “folding stability dG unfold” value in data set [1] was 0.021 ± 0.31 kcal/mol; in data set [2], -0.0363 ± 0.16 kcal/mol; in data set [3] it was -0.0613 ± 0.32 kcal/mol.

Regarding “SAGNFNIKEQKETDGRRVIEIPMPGSGHEITIVFERNPDGPRKININMNGPMADYLREALPGIDRVEIISAG [r5_933_TrROS]”, the results for the “folding stability dG unfold” value in data set [1], in data set [2] and in data set [3] were 0.187 ± 0.31 kcal/mol, 0.275 ± 0.26 kcal/mol and 0.213 ± 0.22 kcal/mol, respectively.

In the case of “SAFKIEVYPTKDDGYTVKLTFQHPGYYIEVTITIPPEAAKKGIPLDDIKPIEITEIELIPIPKPDPGDPSAG [r14_856_TrROS]”, the “folding stability dG unfold” value in data set [1] was determined as 2.34 ± 0.28 kcal/mol; in data set [2], 5.13 ± 0.3 kcal/mol; in data set [3], 4.9 ± 0.56 kcal/mol.

In the case of “SAGGSAKIVIKMTPEEIKELAKKLGIKDAKVELVEKKKTKEGEVYVIKITVYENGKKKKEIEIVFPSAGGSA [r15_428_TrROS_Hall]”, the “folding stability dG unfold” value in data set [1] is 0.869 ± 0.17 kcal/mol; in data set [2], 3.72 ± 0.25 kcal/mol; in data set [3], 2.74 ± 0.39 kcal/mol.

Turning to “SAGGSAGGSPAPRFTFSLTVTVERTYPTADGSTRTERFTFTVTGTATVAPPAIGPELARTLGESAGGSAGGS [r12_1060_TrMRF]”, the “folding stability dG unfold” value in data set [1] was determined as 0.7 ± 0.1 kcal/mol; in data set [2], 3.982 ± 0.033 kcal/mol; in data set [3] it was 3.56 ± 0.14 kcal/mol.

As to “SAGGSAGGSAGSEVEEKTIKIEVDGKIYPAKVRFVKDENGKVWVYFDGKWFSAEDLEKLLSAGGSAGGSAGG [r11_690_TrROS_Hall]”, the “folding stability dG unfold” value in data set [1] turned out to be 1.44 ± 0.047 kcal/mol; in data set [2], 4.08 ± 0.085 kcal/mol; in data set [3] it was 3.53 ± 0.16 kcal/mol.

As for “SAKIEIYTHPDGMMEITFELDGRKITITMNPKEGWMMVEVYDPPNGEVVKTIPIPMGDLEDTIKEIIDKSAG [r14_583_TrROS]”, the figures for the “folding stability dG unfold” value in data set [1], in data set [2] and in data set [3] were 2.03 ± 0.17 kcal/mol, 4.35 ± 0.23 kcal/mol and 3.77 ± 0.53 kcal/mol, respectively.

On to “SAGGSLPELGIEARTVETVEEPNDPNKSTTYLYEVKLPDGSRILITVTKNPGGDVSEEVEVIPPEELSAGGS [r8_216_JUSTAS]”, for which the “folding stability dG unfold” value in data set [1] was -1.1 ± 0.7 kcal/mol; in data set [2], 1.74 ± 0.037 kcal/mol; in data set [3], 1.19 ± 0.13 kcal/mol.

On to “SAGGSAGGSSPDWSVKKSTVTVTITFPEEKYFEPETKKEVAKRPVITIEIEIEVVETLPASLISAGGSAGGS [r12_600_JUSTAS]”, for which the “folding stability dG unfold” value in data set [1] was found to be 1.65 ± 0.067 kcal/mol; in data set [2], 1.44 ± 0.096 kcal/mol; in data set [3], 1.63 ± 0.19 kcal/mol.

Take “SAGAKITYDKENKTITITITNKNGYKVTIEIEIKKDKNGKYTITKIKVTVYKNGKKILSAEELLKKLLKSAG [r5_842_TrROS_Hall]”: the “folding stability dG unfold” value in data set [1] is 1.71 ± 0.21 kcal/mol; in data set [2], 4.38 ± 0.22 kcal/mol; in data set [3] it was 4.31 ± 0.43 kcal/mol.

Turning to “SAGGSKTVTVTVRIKVTNEDGEELTVTARLTYNEETGEVTVEIEMSPEALERLRELFPDVKIEIYPSAGGSA [r2_409_TrROS_Hall]”, the “folding stability dG unfold” value in data set [1] was 4.08 ± 0.22 kcal/mol; in data set [2], 3.09 ± 0.13 kcal/mol; in data set [3] it was 3.9 ± 0.32 kcal/mol.

Consider “SAGGMKKGEKVKIEIISVEEKEGKIYFTIRIKNEKTGKYYEIKIEAPSKEDALKAIEELIKEGKIEIKSAGG [r13_286_TrROS_Hall]”, for which the “folding stability dG unfold” value stood at 1.77 ± 0.31 kcal/mol in data set [1], 4.2 ± 0.22 kcal/mol in data set [2] and 3.92 ± 0.54 kcal/mol in data set [3].

As to “SAGGSAMVSLEEAKEATLREVKAALGFSPDATPEELRARGVPVRVPITVRDEKGNVIAELELELPGSAGGSA [r15_391_JUSTAS]”, the “folding stability dG unfold” value in data set [1] was -0.118 ± 0.04 kcal/mol; in data set [2], 0.571 ± 0.046 kcal/mol; in data set [3], 0.37 ± 0.039 kcal/mol.

Take “SDEIAELLKKLLEELGYEVEVRVERLPEGEDEIVVTVRVRKPLPEGRVKEVELTLRIKKVDGKLVVELLPSA [r9_489_TrROS_Hall]”: the “folding stability dG unfold” value in data set [1] came out at 2.71 ± 0.071 kcal/mol; in data set [2] it was 5.34 ± 0.2 kcal/mol; in data set [3], 4.8 ± 0.12 kcal/mol.
